In paper PMC5111583:
These are yes or no findings as the source states them, for the method shown. Binding seen in cells or lysates may run through a third protein. Some entries that bind do so weakly or less than the wild type.

Chains of the proteins cited; added tags and fusions are not shown. Lines headed by an entry give the natural chain unless they say otherwise; changes in a name come on top. A line that says so, or that is headed by a name, gives the form on record, which may keep a tag or linker. Residues count along the entry.
UniProt Q71RC2: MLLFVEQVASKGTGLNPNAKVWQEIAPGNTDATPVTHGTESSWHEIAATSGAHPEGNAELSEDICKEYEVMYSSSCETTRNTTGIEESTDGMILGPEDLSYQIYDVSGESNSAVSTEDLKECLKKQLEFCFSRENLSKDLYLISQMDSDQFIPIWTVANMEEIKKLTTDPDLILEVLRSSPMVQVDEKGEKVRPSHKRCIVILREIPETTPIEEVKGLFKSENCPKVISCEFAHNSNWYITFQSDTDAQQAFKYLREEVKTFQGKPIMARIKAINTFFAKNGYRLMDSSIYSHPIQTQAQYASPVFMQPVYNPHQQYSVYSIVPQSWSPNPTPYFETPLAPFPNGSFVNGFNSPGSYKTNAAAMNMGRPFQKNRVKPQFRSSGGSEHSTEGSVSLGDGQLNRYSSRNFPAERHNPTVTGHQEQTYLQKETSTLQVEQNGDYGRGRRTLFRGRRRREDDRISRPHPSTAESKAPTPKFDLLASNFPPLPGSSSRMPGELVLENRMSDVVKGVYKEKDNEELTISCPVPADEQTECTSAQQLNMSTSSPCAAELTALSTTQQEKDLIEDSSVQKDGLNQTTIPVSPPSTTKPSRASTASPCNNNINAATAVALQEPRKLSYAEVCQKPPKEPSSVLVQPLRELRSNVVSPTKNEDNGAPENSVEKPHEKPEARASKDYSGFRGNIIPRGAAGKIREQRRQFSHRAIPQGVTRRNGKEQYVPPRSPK
LARP4-S388* truncation mutant (FLAG-tagged): residues 1-387 of Q71RC2
UniProt P11940: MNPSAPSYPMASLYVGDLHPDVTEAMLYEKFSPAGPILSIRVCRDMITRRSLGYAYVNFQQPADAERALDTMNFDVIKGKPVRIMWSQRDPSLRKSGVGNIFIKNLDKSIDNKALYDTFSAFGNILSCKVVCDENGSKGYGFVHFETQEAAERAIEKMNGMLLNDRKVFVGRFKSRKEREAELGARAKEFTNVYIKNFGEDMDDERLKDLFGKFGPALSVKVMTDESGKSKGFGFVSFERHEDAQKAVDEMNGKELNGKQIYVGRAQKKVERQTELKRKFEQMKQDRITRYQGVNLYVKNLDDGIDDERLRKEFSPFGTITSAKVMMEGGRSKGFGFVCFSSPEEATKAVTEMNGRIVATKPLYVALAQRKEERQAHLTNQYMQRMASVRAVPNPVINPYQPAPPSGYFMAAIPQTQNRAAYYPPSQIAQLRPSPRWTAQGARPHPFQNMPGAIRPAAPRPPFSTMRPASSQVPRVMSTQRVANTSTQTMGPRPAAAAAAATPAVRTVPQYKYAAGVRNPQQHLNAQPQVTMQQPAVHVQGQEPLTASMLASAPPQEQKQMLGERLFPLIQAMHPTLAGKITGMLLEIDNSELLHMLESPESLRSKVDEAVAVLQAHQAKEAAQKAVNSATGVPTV

Key:
Assay in all cases: co-IP; HEK293T lysates 24 h after transfection; anti-FLAG antibody-conjugated agarose beads, 2 h at 4 °C; 20 mM Tris-HCl pH 8.0, 130 mM NaCl, 1% Triton X-100, 1 mM DTT; immunoblot for PABP1
[1] = molecular target: LARP4-G489V (FLAG-tagged) (human) (UniProt Q71RC2)
[2] = molecular target: LARP4-I460M (FLAG-tagged) (human) (UniProt Q71RC2)
[3] = molecular target: LARP4-M542R (FLAG-tagged) (human) (UniProt Q71RC2)
[4] = molecular target: LARP4-R406I (FLAG-tagged) (human) (UniProt Q71RC2)
[5] = molecular target: LARP4-S388* truncation mutant (FLAG-tagged) (human) (UniProt Q71RC2)
[6] = molecular target: LARP4-S470L (FLAG-tagged) (human) (UniProt Q71RC2)
[7] = molecular target: wild-type FLAG-epitope tagged LARP4 (human) (UniProt Q71RC2)

binding [1]: binds
binding [2]: binds
binding [3]: binds
binding [4]: binds
binding [5]: binds
binding [6]: binds
binding [7]: binds
Substance: poly(A)-binding protein (PABP1) (from UniProt P11940 1-636)
